# Source: PubChem BioAssay AID1671190 (National Center for Advancing Translational Sciences (NCATS), 2021)
# Protein sequences, listed by entry. Tags and fused reporters are not part of them.
# UniProt P18054, whole entry, looked up: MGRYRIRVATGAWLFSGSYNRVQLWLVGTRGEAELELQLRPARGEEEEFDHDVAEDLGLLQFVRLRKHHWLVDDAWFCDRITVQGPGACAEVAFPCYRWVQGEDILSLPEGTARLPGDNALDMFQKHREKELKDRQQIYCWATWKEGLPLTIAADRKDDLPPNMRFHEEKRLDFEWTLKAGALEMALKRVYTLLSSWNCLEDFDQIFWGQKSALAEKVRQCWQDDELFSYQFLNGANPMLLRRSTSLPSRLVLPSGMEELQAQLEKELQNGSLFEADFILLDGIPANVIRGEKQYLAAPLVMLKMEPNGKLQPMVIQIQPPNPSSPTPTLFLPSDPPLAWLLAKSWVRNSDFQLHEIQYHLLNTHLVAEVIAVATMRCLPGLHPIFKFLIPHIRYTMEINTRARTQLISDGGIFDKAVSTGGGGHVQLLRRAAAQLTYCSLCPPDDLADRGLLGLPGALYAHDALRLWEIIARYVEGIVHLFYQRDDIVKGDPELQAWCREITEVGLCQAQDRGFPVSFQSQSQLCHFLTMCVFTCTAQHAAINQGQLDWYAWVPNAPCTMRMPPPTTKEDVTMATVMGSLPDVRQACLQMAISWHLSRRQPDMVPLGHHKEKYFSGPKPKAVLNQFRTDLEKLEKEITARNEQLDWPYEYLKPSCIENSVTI
# Values joined by “and” are separate entries in the source; they are usually repeats but may differ in a detail not shown here. Equal entries are not always repeated. Hit rate of the full screen: of about 580,000 compounds, about 6,100 (1.1%) were called active. Another 15% or so got no clear call; they are omitted. Calls follow the shape of the dose curve; as a rule, active = well fitted inhibition curve with a large enough effect; inconclusive = small, poorly fitted or top-dose-only effect, or another doubt; inactive = no such curve, though single readings can be large or run the other way. Only a part is listed here, and it is no random draw. The source gives no active or inactive call for entries shown without one. A structure can be active in one record and inactive in another.
# Molecular target: Polyunsaturated fatty acid lipoxygenase ALOX12 (Homo sapiens) (UniProt P18054)
# Test: Primary qHTS assay for inhibitors of human arachidonate 12S-lipoxygenase (ALOX12): Round 2
# Details: purified 12hLO, xylenol orange hydroperoxide absorbance; activity change, negative = inhibition: at 0.00344 µM (top of the series)
# Source text: Assay Provider: Theodore R. Holman Ph.D. University of California, Santa Cruz, California Human lipoxygenase 12hLO is a member of the closely related lipoxygenase family of enzymes which catalyze the site-specific oxidation of arachidonic acid to various hormone precursor molecules and as such is a candidate for drug development in a variety of disease areas, such as cancer and inflammation. Inhibition of 12hLO activity was screened by utilizing arachidonic acid as a substrate. The extent of hydroperoxide product formation was measured by a secondary chromogenic reaction in which xylenol orange (XO, Sigma-Aldrich, cat. number 39,818-7) reacts with the ferric ions produced from the reaction between the hydroperoxide and ferrous ions. The Fe (III)-XO complex is characterized with red-shifted absorbance at 560 nm. A purified preparation of human 12hLO was supplied by Dr. Holman laboratory, University of California, Santa Cruz.
# PROTOCOL TABLE SEQUENCE No. (e.g., 1, 2, 3, etc.); […] (e.g., Cells, Incubation, Reagent, etc.); VALUE; DESCRIPTION 1; Enzyme; 3 uL; 150 nM 12hLO enzyme solution dispensed in 1536-well Greiner black, clear bottom plates. 2; Compound; 23 nL; compounds and controls were added. 3; Incubate; 15 min; room temperature. 4; Substrate; 1 uL; 40 uM arachidonic acid (final concentration). 5; Incubate; 30 min; room temperature. 6; Reagent; 4 uL; Fe-XO solution was added to each well. 7; Incubation; 30 min; room temperature 8; Detector; absorbance; Read 1 at 405 nm absorbance using ViewLux (Perkin-Elmer) CCD imager. 9; Detector; absorbance; Read 2 at 573 nm absorbance using ViewLux (Perkin-Elmer) CCD imager. NOTES (numbers refer to sequence above) 1; 150 nM 12hLO (final concentration) in buffer solution (25 mM Hepes, 0.01% Triton X-100, pH 7.0) was dispensed in columns 1, 2, 5-48. Column 1 is neutral (100% activity). Buffer only was dispensed in columns 3 and 4 as no enzyme negative controls. The plates were covered with metal lids with gas-exchange holes. 2; Compounds were pin transferred via a Kalypsys Pin Tool (Wako USA) in column 5-48. Control compound was transferred in column 2, titration of nordihydroguaiaretic acid (NDGA, Sigma-Aldrich, N5023) with top concentration of 20 mM in DMSO then 1:3 dilution in duplicate. Dilution factor of 23 nL into 4 uL final assay volume. 3; Covered assay plates were incubated for 15 min at room temperature. 4; Substrate was added to start the reaction; 40 uM arachidonic acid (Sigma-Aldrich, St. Louis, MO) was dispensed throughout the plate. 6; Chromogenic detection reagent solution (divalent iron/xylenol orange, Fe-XO) was added to each well: 200 uM xylenol orange, 300 uM ferrous ammonium sulfate prepared freshly in 50 mM sulfuric acid. 8, 9; Two absorbance readouts were obtained at 405 nm and at 573 nm using a ViewLux high-throughput CCD plate imager (Perkin-Elmer). The 573 to 405 (Read 2 / Read 1) absorbance ratio was used to compute reaction progress.
# % is scaled to controls: 0 for no effect and ±100 for the full control effect; potency is read from the fitted curve at half-maximal effect.
Structure (SMILES),"activity change, negative = inhibition",Potency
Cc1cc(C)cc(OCC2CNC(=O)O2)c1 (stereo not drawn),20.5%,–
CC(=O)O[C@H]1C[C@@H]2CC[C@@H]3[C@H](CC[C@@]4(C)[C@H]3C[C@H]([N+]3(C)CCCCC3)[C@@H]4OC(C)=O)[C@@]2(C)C[C@@H]1N1CCCCC1,-13.7%,–
C[C@@H](O)[C@H]1C(=O)N2C(C(=O)O)=C(S[C@@H]3CN[C@H](C(=O)N(C)C)C3)[C@H](C)[C@H]12,11.2% and 24.9%,–
C[C@H](NC(CCc1ccccc1)C(=O)O)C(=O)N1CCC[C@H]1C(=O)O (stereo partly drawn),-33.6%,–
C[C@H]1O[C@@H](n2cc(F)c(=O)[nH]c2=O)[C@H](O)[C@@H]1O,-14.7%,–
Nc1c(CC(=O)O)cccc1C(=O)c1ccc(Br)cc1,3.27%,–
OCCN1CCN(CCCN2c3ccccc3C=Cc3ccccc32)CC1,-1.55%,–
O=C(NCCN1CCOCC1)c1ccc(Cl)cc1,25.1%,–
O=C(CSc1ccc(-c2ccco2)nn1)c1ccc(F)cc1,–,active: 28.2 µM
NCCNCCNCCN,7.36%,–
CCN1CCCC(OC(=O)C(c2ccccc2)c2ccccc2)C1 (stereo not drawn),-22.4%,–
Nc1ccc(C(=O)O)cc1,-8.37%,–
COc1ccc(CN2CCCCCC2)cc1Br,–,active: 1 µM
COc1c(C)c2c(c(O)c1C/C=C(\C)CCC(=O)O)C(=O)OC2,7.39%,–
O=C(O)c1ccc(S(=O)(=O)N(Cl)Cl)cc1,16.2%,–
CN1[C@@H]2CC[C@H]1CC(OC(=O)c1c[nH]c3ccccc13)C2 (stereo partly drawn),-4.29%,–
COc1cc(C(C)=O)ccc1OCCCN1CCC(c2noc3cc(F)ccc23)CC1,-23.5%,–
Cc1cc(C)c(NC(=O)CN(CC(=O)O)CC(=O)O)c(C)c1Br,16%,–
O=NN(CCCl)C(=O)NCCCl,20.4%,–
O=C(O)Cc1ccc(OCCNC[C@H](O)c2ccccc2)cc1,-9.55%,–
S=C(NCCC(c1ccccc1)c1ccccc1)Nc1ccccc1,–,active: 35.5 µM
CC(O)COc1ccccc1 (stereo not drawn),7.26%,–
C#C[C@]1(O)CC[C@H]2[C@@H]3CCc4cc(O)ccc4[C@H]3CC[C@@]21C,-24.1%,–
CCCCN(CCCC)CCC(O)c1cc2c(Cl)cc(Cl)cc2c2cc(C(F)(F)F)ccc12 (stereo not drawn),-18.8%,–
Cc1ccc(NNC2CC(=O)N(c3cccc(Cl)c3)C2=O)cc1 (stereo not drawn),–,active: 20 µM

Structure (SMILES),"activity change, negative = inhibition",Potency
CCOC(=O)C1=C(C)NC(C)=C(C(=O)OCC)C1c1ccccc1/C=C/C(=O)OC(C)(C)C,-28.6%,–
COc1ccc(C(=O)CC(=O)c2ccc(C(C)(C)C)cc2)cc1,45.3%,–
CCC(C(=O)O)c1ccc(N2Cc3ccccc3C2=O)cc1 (stereo not drawn),19.8%,–
CC(=O)OCC(=O)[C@@]1(O)[C@H](C)C[C@H]2[C@@H]3CCC4=CC(=O)C=C[C@]4(C)[C@@]3(F)[C@@H](O)C[C@@]21C,30%,–
CCCCCN(CCCCC)C(=O)C(CCC(=O)O)NC(=O)c1ccc(Cl)c(Cl)c1 (stereo not drawn),-27%,–
CC(C)NCC(O)c1ccc(O)c(O)c1 (stereo not drawn),19.5%,–
COc1ccccc1Cc1c(-c2ccc(C#N)cc2)nc2ccc(Br)cn12,–,active: 25.1 µM
Clc1ccc(CNCc2ccccc2Cn2cncn2)c(Cl)c1,–,active: 44.7 µM
NC(=O)n1c(O)c(C(=O)c2cccs2)c2cc(Cl)ccc21,12.8%,–
COc1ccc(S(=O)(=O)N2CCc3ccccc32)cc1C(=O)N1CCN(c2ncccn2)CC1,–,active: 39.8 µM
CCO[C@H](Cc1ccc(OCCc2ccc(OS(C)(=O)=O)cc2)cc1)C(=O)O,-3.11%,–
CCc1ccc(NCc2cc(=O)n3[nH]c(-c4ccccc4)nc3n2)cc1,–,active: 8.91 µM
COc1ccc(-c2nc3ccccc3c(=O)n2NC(=S)N(C)C)cc1,–,active: 35.5 µM
CCN(CC)CCOc1ccc2c(c1)C(=O)c1cc(OCCN(CC)CC)ccc1-2,–,active: 22.4 µM
Cc1cc(C)cc(C(=O)NC(=S)Nc2ccc(-c3cc4ccccc4oc3=O)cc2)c1,–,active: 10 µM
O=C1CC2(CCCC2)CC(=O)N1,-39.8%,–
CCN(CC)c1ccc(C(=C2C=CC(=[N+](CC)CC)C=C2)c2cc(S(=O)(=O)O)ccc2S(=O)(=O)[O-])cc1,-32.1%,–
O=C(Nc1cc(=O)[nH]c2nc(C(F)(F)F)nn12)c1ccc(Cl)cc1Cl,–,active: 25.1 µM
Cc1cc2nc3ccc(=[N+](C)C)cc-3sc2cc1N,16.5%,–
CCCCC(CC)COC(=O)C(C#N)=C(c1ccccc1)c1ccccc1 (stereo not drawn),-10.9%,–
Cc1ccccc1OCC(O)CO (stereo not drawn),45.1%,–
CC1=C(CC(=O)O)c2cc(F)ccc2/C1=C\c1ccc(S(C)(=O)=O)cc1,-19.7%,–
CC(C)(C)C(=O)C(Oc1ccc(Cl)cc1)n1ccnc1 (stereo not drawn),3.65%,–
NC(=NCCCCCCN=C(N)/N=C(\N)Nc1ccc(Cl)cc1)/N=C(\N)Nc1ccc(Cl)cc1,19%,–
CC(C)c1ccc(Nc2nnc(SCC(=O)c3nnc(-c4ccccc4)o3)s2)cc1,–,active: 39.8 µM
CC1(C)S[C@@H]2[C@H](NC(=O)C(C(=O)O)c3ccccc3)C(=O)N2[C@H]1C(=O)O (stereo partly drawn),4.96%,–

Structure (SMILES),"activity change, negative = inhibition",Potency
O=C(NC(=S)Nc1cccc(NC(=S)NC(=O)c2ccccc2)c1)c1ccccc1,–,active: 14.1 µM
CC(C)OC(=O)OCOP(=O)(CO[C@H](C)Cn1cnc2c(N)ncnc21)OCOC(=O)OC(C)C,4.67%,–
Cc1ccccc1-c1nc(Nc2ccncc2)c2ccccc2n1,–,active: 35.5 µM
CC(=O)c1c(C)oc2ccc(NS(=O)(=O)c3ccc(O)c(C(=O)O)c3)cc12,–,active: 15.8 µM
CCSc1nc2c([nH]1)c(=O)n(C)c(=S)n2C,–,active: 10 µM
CCN(CC)CCNC(C(=O)OCCC(C)C)c1ccccc1 (stereo not drawn),7.03%,–
O=c1[nH]c2ccccc2n1CCCN1CCN(C(c2ccccc2)c2ccccc2)CC1,-32.2%,–
S=c1sscc1-c1ccccc1,–,active: 5.62 µM
O=C(O)c1ccccc1C(=O)Nc1ccc(S(=O)(=O)Nc2nccs2)cc1,-5.2%,–
S=c1nc(-c2ccccc2)n(-c2ccccc2)[nH]1,–,active: 44.7 µM
CC(=O)OC(C)OC(=O)C(C)c1ccc(-c2ccccc2)c(F)c1 (stereo not drawn),16%,–
OCCN(CCO)c1nc(N2CCCCC2)c2nc(N(CCO)CCO)nc(N3CCCCC3)c2n1,-43.7%,–
C/C(=N\NC(=S)NC1CCCCC1)c1ccc(C)o1,–,active: 5.01 µM
O=C(N/N=C/c1ccc(-c2ccc(S(=O)(=O)Nc3ncccn3)cc2)o1)c1cc2ccccc2cc1O,–,active: 12.6 µM
CC1CC(OC(=O)c2ccccc2O)CC(C)(C)C1 (stereo not drawn),0.744%,–
O=C1CC(c2ccc(Cl)cc2)CC(=O)N1,21.1%,–
CC(C)(C)c1cc(C=O)cc(C(C)(C)C)c1O,8.73%,–
O=C(CCCN1CCN(c2ccccn2)CC1)c1ccc(F)cc1,7.89%,–
N[C@H](Cc1c[nH]c2ccccc12)C(=O)O,46.1%,–
COc1cccc(C2C(C(=O)c3ccc(C)o3)=C(O)C(=O)N2c2cc(C)on2)c1 (stereo not drawn),–,active: 50.1 µM
Nc1c2ccccc2nc2ccccc12,-6.98%,–
CC[C@@]1(c2ccccc2)NC(=O)N(C)C1=O,24.8%,–
COC(=O)c1nc(Cl)c(Cl)nc1N,-32%,–
Cl/C(=C\n1cncn1)c1ccc(Cl)cc1Cl,30.9%,–
CC(=O)NCc1c(I)c(NC(C)=O)c(I)c(C(=O)O)c1I,3.26%,–
COc1ccc(C2(CNC(=O)/C=C\c3ccco3)CCCC2)cc1OC,–,active: 44.7 µM

Structure (SMILES),"activity change, negative = inhibition",Potency
NC(=O)CCCCC1CCSS1 (stereo not drawn),49.7%,–
NS(=O)(=O)c1cc2c(cc1C(F)(F)F)NCNS2(=O)=O,-17.9%,–
CC(O)Cn1cnc2c1c(=O)n(C)c(=O)n2C (stereo not drawn),27.8%,–
CC(C)=CCc1c(O)ccc2c1OC(c1ccc(O)c(O)c1)CC2=O (stereo not drawn),–,active: 28.2 µM
CCC(C)(C)c1ccc2c(C(=O)N3C[C@H](N)C[C@H]3C(=O)NC)csc2c1,–,active: 12.6 µM
NS(=O)(=O)c1cc2c(cc1Cl)NC(C1CC3C=CC1C3)NS2(=O)=O (stereo not drawn),-22.6%,–
CC(=O)CC(c1ccccc1)c1c(O)c2ccccc2oc1=O (stereo not drawn),5.21%,–
O=[N+]([O-])c1cccc(-c2ccc(CN3CCN(c4ccccc4)CC3)o2)c1,–,active: 7.08 µM
CCOc1ccc(S(=O)(=O)N(CC(=O)N/N=C/c2ccc(-c3ccc([N+](=O)[O-])cc3)o2)c2ccccc2)cc1,–,active: 31.6 µM
NC(N)=NC(=O)c1nc(Cl)c(N)nc1N,28.8%,–
O=C(Cc1ccc(Cl)cc1)N1CCC2(CC1)NC(=O)N(c1cccc(F)c1)N2,–,active: 3.16 µM
CNC(=O)c1cc(Oc2ccc(NC(=O)Nc3ccc(Cl)c(C(F)(F)F)c3)cc2)ccn1,16.5%,–
CCN1CCN(C(=O)N[C@@H](C(=O)N[C@@H]2C(=O)N3[C@@H]2SC(C)(C)[C@H]3C(=O)O)c2ccccc2)C(=O)C1=O,3.41%,–
COc1cccc2c1C(=O)c1c(O)c3c(c(O)c1C2=O)C[C@@](O)(C(C)=O)C[C@@H]3O[C@H]1C[C@H](N)[C@H](O)[C@H](C)O1,-10.5%,–
O=C1/C(=C/c2ccco2)SC(=S)N1CCC(=O)N1CCCCC1CCO (stereo not drawn),–,active: 44.7 µM
O=C(O)c1ccccc1OP(=O)(O)O,-23.3%,–
NC(CS)C(=O)O (stereo not drawn),21.3%,–
Cc1c(N)cccc1C(F)(F)F,-16.4%,–
C[C@]12CCC(=O)C=C1[C@@H]1C[C@@H]1[C@H]1[C@@H]3[C@@H]4C[C@@H]4[C@@]4(CCC(=O)O4)[C@@]3(C)CC[C@@H]12,8.43%,–
Cc1nc(N)nc(N)c1-c1ccc(Cl)c(Cl)c1,14.6%,–
O[C@@H](CNC[C@H](O)[C@H]1CCc2cc(F)ccc2O1)[C@@H]1CCc2cc(F)ccc2O1,-22%,–
Oc1ccc(Cl)cc1Sc1cc(Cl)ccc1O,11.6%,–
CC1(C)S[C@@H]2[C@H](NC(=O)[C@H](N)c3ccccc3)C(=O)N2[C@H]1C(=O)O,7.51%,–
CCS(=O)(=O)c1ccc(OC)c(C(=O)OC)c1,-45.2%,–
